Measurements from PubChem BioAssay AID588590 (National Center for Advancing Translational Sciences (NCATS), 2011).
The campaign covered roughly 390,000 compounds. About 4,000 (1%) were called active. The inconclusive results got no clear call from the source; some entries with a clear call stand among them for comparison. The call rests on the fitted dose curve; in most records, active means well fitted inhibition curve with a large enough effect; inconclusive means small, poorly fitted or top-dose-only effect, or another doubt; inactive means no such curve, though single readings can be large or run the other way. Potencies beside an inconclusive call are fits to weak or partial responses and may not hold up.
Potency means the concentration at half of the fitted maximal effect.

Chains of the proteins cited; added tags and fusions are not shown. Lines headed by an entry give the natural chain unless they say otherwise; changes in a name come on top.
UniProt Q9UNA4: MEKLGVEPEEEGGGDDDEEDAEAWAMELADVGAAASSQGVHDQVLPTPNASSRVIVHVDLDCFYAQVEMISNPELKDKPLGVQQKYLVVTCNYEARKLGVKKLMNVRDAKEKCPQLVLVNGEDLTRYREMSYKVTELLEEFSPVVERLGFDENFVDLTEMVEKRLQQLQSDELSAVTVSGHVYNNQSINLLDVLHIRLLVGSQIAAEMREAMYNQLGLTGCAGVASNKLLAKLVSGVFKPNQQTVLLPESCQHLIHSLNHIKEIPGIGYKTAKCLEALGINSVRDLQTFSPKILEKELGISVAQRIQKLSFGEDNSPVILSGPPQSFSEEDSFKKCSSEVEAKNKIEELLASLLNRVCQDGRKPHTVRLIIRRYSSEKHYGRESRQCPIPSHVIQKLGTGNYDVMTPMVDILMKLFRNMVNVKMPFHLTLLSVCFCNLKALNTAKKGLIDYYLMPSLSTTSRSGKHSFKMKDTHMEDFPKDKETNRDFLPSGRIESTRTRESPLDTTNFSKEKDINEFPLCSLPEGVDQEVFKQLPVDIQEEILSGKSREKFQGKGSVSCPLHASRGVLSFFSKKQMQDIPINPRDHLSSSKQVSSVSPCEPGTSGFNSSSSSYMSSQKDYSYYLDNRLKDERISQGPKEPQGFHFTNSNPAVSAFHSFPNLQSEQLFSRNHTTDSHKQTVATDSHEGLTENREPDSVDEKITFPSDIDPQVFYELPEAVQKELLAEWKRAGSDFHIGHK

The molecules below were run against DNA polymerase iota (Homo sapiens) (UniProt Q9UNA4) (assay: qHTS for Inhibitors of Polymerase Iota). Details: Pol iota fluorescent replication assay, 10 min; series mostly up to 115 µM; activity, negative = inhibition: at the top concentration.
How it was run: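 Fluorescent replication assay read twice, at 0 min and 10 min after adding 50 nM (final) substrate. Enzyme (10 nM) and compounds were first incubated 15 min at room temperature; enzyme-free buffer wells were negative controls.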
`Cc1ccc(S(=O)(=O)NC(CC(C)C)C(=O)NCCCn2nc(C)cc2C)cc1` (stereo not drawn) was tested, and the “activity, negative = inhibition” value was inactive: 11.9%. In the case of `COc1ccc(-c2cc(C(=O)Oc3ccc(Br)cc3)c3ccccc3n2)cc1`, the “activity, negative = inhibition” value was inactive: 41.4%. For `CCOc1ccc(Nc2cc(=O)n(C)c(=O)n2C)cc1`, the Potency was inconclusive: 100 µM [inhibitor, partial curve, poor fit]. In the case of `Cc1nc2ccccc2n1/N=C/c1ccc([N+](=O)[O-])o1`, the Potency was inconclusive: 79.4 µM [inhibitor, partial curve, poor fit]. In the case of `CC(C)=CC(=O)Nc1nnc(C)s1`, the “activity, negative = inhibition” value was inactive: 13.7%. In the case of `CN(C)c1ccc(C(=S)NCc2ccco2)cc1`, the Potency was inconclusive: 35.5 µM [inhibitor, partial curve, poor fit]. In the case of `COc1ccc(Cc2nc3ccc(C(=O)N4CCCC4)cc3o2)cc1`, the “activity, negative = inhibition” value was inactive: -3.9%. In the case of `COc1ccc(-c2nnn(CC(=O)N(CC(=O)NC3CCCC3)c3ccccc3)n2)cc1OC`, the “activity, negative = inhibition” value was inactive: 5.24%. `O=C(CNCc1cccs1)Nc1ccc(OC(F)(F)F)cc1` was tested, and the “activity, negative = inhibition” value was inactive: 73.2%. With `Cc1cccc(Nc2nnc(SCC(=O)c3ccc(O)cc3O)s2)c1` the “activity, negative = inhibition” value was inactive: 135%. With `CC(=O)c1c(N2CCOCC2)nc(=S)n(Cc2ccccc2)c1C` the Potency was inconclusive: 89.1 µM [inhibitor, partial curve, poor fit]. In the case of `O=C(/C=C/c1ccc(Cl)cc1)c1ccc([N+](=O)[O-])o1`, the Potency was inconclusive: 2.51 µM [inhibitor, partial curve, poor fit]. `COC(=O)c1ccc(-n2cncn2)c(F)c1` was tested, and the Potency was inconclusive: 22.4 µM [inhibitor, partial curve, poor fit]. With `Cc1cc(C(=O)COc2cccnc2[N+](=O)[O-])c(C)n1Cc1cccs1` the Potency was inconclusive: 25.1 µM [inhibitor, partial curve, poor fit]. `CCC1CCCCN1C(=O)CCS(=O)(=O)c1ccc2c(c1)CCN2C(C)=O` (stereo not drawn) was tested, and the Potency was inconclusive: 79.4 µM [inhibitor, single point]. With `C=CCN1C=C2C(=O)C(C)(OC(=O)CCC(=O)OC)C(=O)C(Br)=C2C=C1c1ccc(OC)cc1` (stereo not drawn) the Potency was inconclusive: 15.8 µM [inhibitor, partial curve, poor fit]. With `COc1cccc(NC(=O)CN(C)C(=O)Cc2c(C)nc3ccccc3c2C)c1` the Potency was inconclusive: 89.1 µM [inhibitor, single point]. In the case of `CCOC(=O)C1=C(COc2ccccc2)NC(=O)NC1c1ccc2ccccc2c1` (stereo not drawn), the Potency was inconclusive: 39.8 µM [inhibitor, partial curve, poor fit]. For `Cc1c(/C=C/C(=O)c2ccccc2)cnn1C`, the Potency was inconclusive: 89.1 µM [inhibitor, single point]. With `Cc1nc([N+](=O)[O-])c(Br)n1CC(=O)c1ccc(Br)cc1` the Potency was inconclusive: 20 µM [inhibitor, partial curve, poor fit]. With `COc1cc(/C=N\Nc2nc3ccccc3o2)cc(OC)c1OC` the Potency was inconclusive: 79.4 µM [inhibitor, partial curve, poor fit]. With `Cc1ccc(S(=O)(=O)/N=C2\C=C(NS(=O)(=O)c3ccccc3)C(=O)c3ccccc32)c(C)c1` the Potency was inconclusive: 25.1 µM [inhibitor, partial curve]. In the case of `Cc1ccc(NC(=O)Cn2cncc2-c2ccc([N+](=O)[O-])cc2)cc1C`, the Potency was inconclusive: 50.1 µM [inhibitor, partial curve]. For `COC(=O)c1cc(NC(=O)Cc2ccc(OC)c(OC)c2)cc(C(=O)OC)c1`, the Potency was inconclusive: 39.8 µM [inhibitor, single point]. With `COc1ccc(N2CC(C(=O)Nc3nnc(SCc4cccnc4)s3)CC2=O)cc1` (stereo not drawn) the Potency was inconclusive: 15.8 µM [inhibitor, full curve, poor fit]. `Cc1ccc(-n2c(=O)c3c4c(sc3n(CC(=O)C(C)(C)C)c2=O)CCCCC4)cc1C` was tested, and the “activity, negative = inhibition” value was inactive: 2.4%. With `COC(=O)c1ccc(-c2c(-c3ccccc3)ncc3cc(F)ccc23)cc1` the Potency was inconclusive: 39.8 µM [inhibitor, partial curve, poor fit]. With `Cc1nc(S/C(=C/c2ccc(OCc3ccc(C(=O)O)cc3)cc2)C(=O)O)n[nH]1` the Potency was active: 3.98 µM. With `Cc1ccccc1C(=O)Nc1nc(-c2cccnc2)cs1` the Potency was inconclusive: 15.8 µM [inhibitor, full curve]. In the case of `C[C@H]1c2cccc(O)c2C(O)=C2C(=O)[C@]3(O)C(O)=C(C(N)=O)C(=O)C(N(C)C)[C@@H]3[C@@H](O)C21` (stereo partly drawn), the “activity, negative = inhibition” value was inactive: 7.83% [at 58.9 µM]. For `CCOc1ccc(-c2cc3cc(OC)c(OC)cc3c(C)n2)cc1`, the “activity, negative = inhibition” value was inactive: 58%. With `Cc1nn(-c2ccccc2)c2c1C(c1ccncc1)C(C#N)=C(N)O2` (stereo not drawn) the Potency was inconclusive: 14.1 µM [inhibitor, partial curve, poor fit]. `O=C(CNC(=O)c1cccnc1)c1ccc(F)cc1` was tested, and the “activity, negative = inhibition” value was inactive: -10.3%. For `CC(C)COc1ccc(CC(=O)NO)cc1`, the “activity, negative = inhibition” value was inactive: 48.2%. For `N#C/C(=C\c1ccc(-c2cccc([N+](=O)[O-])c2)o1)C(=O)Nc1nc(-c2cccs2)cs1`, the Potency was inconclusive: 28.2 µM [inhibitor, partial curve, poor fit]. In the case of `O=C(NNC(=O)c1cccc(-n2cccc2)c1)c1ccc(F)cc1`, the Potency was active: 50.1 µM. For `COc1cccc(NC(=O)CN(C)S(=O)(=O)c2ccc3[nH]c(=O)oc3c2)c1`, the Potency was inconclusive: 56.2 µM [inhibitor, partial curve, poor fit]. With `COc1ccc(/C=C2\SC(N)=NC2=O)cc1Br` the Potency was inconclusive: 22.4 µM [inhibitor, partial curve, poor fit]. `CCNc1ccc(/C=C2\C=Cc3ccccc32)cc1` was tested, and the “activity, negative = inhibition” value was inactive: 68.5%. With `O=S(=O)(Nc1cc(Sc2cccc3cccnc23)c(O)c2ccccc12)c1ccc(F)cc1` the Potency was inconclusive: 11.2 µM [inhibitor, full curve, poor fit]. `N#Cc1c(-c2ccccc2)nc(SCc2cccc(C(F)(F)F)c2)[nH]c1=O` was tested, and the Potency was inconclusive: 17.8 µM [inhibitor, partial curve, poor fit]. `COC(=O)c1c(NC(=O)/C(C#N)=C/c2ccccc2)sc2c1C(C(=O)OC)CC2` (stereo not drawn) was tested, and the Potency was inconclusive: 20 µM [inhibitor, partial curve, poor fit]. For `Cc1ccc([N+](=O)[O-])cc1S(=O)(=O)Nc1ccc(C(=O)N2CCN(C(=O)c3ccco3)CC2)cc1`, the Potency was inconclusive: 70.8 µM [inhibitor, partial curve, poor fit]. `CC(=O)Nc1ccc(OC(=O)c2ccco2)cc1` was tested, and the Potency was inconclusive: 39.8 µM [inhibitor, single point]. In the case of `COc1ccc(C2c3c(n(C)c4ccccc34)C(=O)N2CC(=O)Nc2cccc(Cl)c2C)cc1` (stereo not drawn), the Potency was inconclusive: 89.1 µM [inhibitor, partial curve, poor fit]. For `COc1ccc(NC(=O)CSCC(=O)Nc2sccc2C#N)cc1`, the Potency was inconclusive: 25.1 µM [inhibitor, partial curve, poor fit]. In the case of `Cc1ccc(S(=O)(=O)N2CCN(CC(=O)N/N=C\c3ccc(O)c(O)c3)CC2)cc1`, the Potency was inconclusive: 89.1 µM [inhibitor, single point]. For `C/C(=N\O)C(=O)C(CN1CCCCC1)CN1CCCCC1`, the Potency was inconclusive: 20 µM [inhibitor, partial curve, poor fit]. With `CCOC(=O)c1c(NC(=O)CSc2nc3cccnc3n2C)sc(C(C)=O)c1C` the “activity, negative = inhibition” value was inactive: 2.57%. `COC(=O)N1C(=O)[C@@](c2ccc(OC)cc2)(C(C)C)N1C(=O)OC` was tested, and the Potency was inconclusive: 5.01 µM [inhibitor, full curve, poor fit]. For `Cc1ccc(NC(=O)CSc2nc3ccccc3c3nc(CCc4c(C)n[nH]c4C)nn23)cc1F`, the Potency was inconclusive: 15.8 µM [inhibitor, single point]. For `COc1cccc(N2CC(C(=O)Nc3nnc(SCC(=O)NCC4CCCO4)s3)CC2=O)c1` (stereo not drawn), the Potency was inconclusive: 56.2 µM [inhibitor, partial curve, poor fit]. In the case of `COc1ccccc1C(=O)N/N=C(\C)CC(=O)Nc1ccccn1`, the Potency was inconclusive: 31.6 µM [inhibitor, single point]. `CCOc1cc(C(=O)Nc2ccc3c(c2)n(C)c(=O)c(=O)n3C)cc(OCC)c1OCC` was tested, and the “activity, negative = inhibition” value was inactive: 26.1%. For `CCOc1ccc(-n2c(SCC(=O)Nc3ccc(CC)cc3)nc3c(oc4ccccc43)c2=O)cc1`, the Potency was inconclusive: 89.1 µM [inhibitor, single point]. With `CC(C)c1ccc(/C=C/C(=O)n2nnc3ccccc32)cc1` the Potency was inconclusive: 35.5 µM [inhibitor, single point]. For `O=C1CCC/C(=N/NC(=O)c2ccc(CN3c4cccc5cccc(c45)S3(=O)=O)cc2)C1`, the Potency was inconclusive: 20 µM [inhibitor, full curve, poor fit]. In the case of `c1ccc(-c2nc(-c3ccco3)cs2)nc1`, the Potency was inconclusive: 17.8 µM [inhibitor, partial curve, poor fit]. With `Cc1ccc(-c2csc(NC(=O)c3ccno3)n2)cc1` the Potency was inconclusive: 15.8 µM [inhibitor, partial curve, poor fit]. In the case of `Cc1[nH][nH]c(=O)c1C(c1ccc(F)cc1)c1c(C)[nH][nH]c1=O`, the Potency was inconclusive: 31.6 µM [inhibitor, single point]. With `CCOc1ncccc1C(=O)Nc1ccc(C)c(S(=O)(=O)N2CCCCCC2)c1` the Potency was inconclusive: 50.1 µM [inhibitor, partial curve, poor fit]. In the case of `Cc1ccc(/C=c2\sc3nc(-c4cccs4)nn3c2=O)o1`, the Potency was inconclusive: 28.2 µM [inhibitor, full curve, poor fit]. For `Cn1c(=O)c2ncn(CC(=O)Nc3ccc4c5c(cccc35)CC4)c2n(C)c1=O`, the Potency was inconclusive: 20 µM [inhibitor, partial curve, poor fit].
